No constants are given. Whether binding was seen depends on the method and setting. In cells and extracts the contact can be indirect. Here binding means that the protein was enriched with, or labelled near, the bait; the list need not be complete. For some of these results: A no says only that the protein was not detected with the bait. Tags and fused reporters may be left off the sequences shown.
T1: FLCN-GFP fusion protein (Folliculin) (human) (UniProt Q8NFG4)
T1 sequence: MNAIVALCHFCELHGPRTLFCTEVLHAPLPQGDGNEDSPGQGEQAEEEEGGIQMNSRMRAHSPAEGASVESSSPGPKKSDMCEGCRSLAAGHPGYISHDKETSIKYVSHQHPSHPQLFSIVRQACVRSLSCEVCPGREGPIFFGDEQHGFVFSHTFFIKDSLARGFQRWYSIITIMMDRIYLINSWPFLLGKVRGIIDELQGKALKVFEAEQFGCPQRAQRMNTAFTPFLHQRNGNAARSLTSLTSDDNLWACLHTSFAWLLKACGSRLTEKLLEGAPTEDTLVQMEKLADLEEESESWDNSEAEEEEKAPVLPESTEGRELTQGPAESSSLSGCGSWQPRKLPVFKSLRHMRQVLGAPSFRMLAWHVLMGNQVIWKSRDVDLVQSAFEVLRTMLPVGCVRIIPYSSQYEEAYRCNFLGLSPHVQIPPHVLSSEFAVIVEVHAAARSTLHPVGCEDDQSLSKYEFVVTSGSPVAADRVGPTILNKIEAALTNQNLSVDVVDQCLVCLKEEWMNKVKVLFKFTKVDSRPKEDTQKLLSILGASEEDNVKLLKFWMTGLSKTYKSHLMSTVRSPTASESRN

Amino acid sequences for entries named in this document (tags omitted).
UniProt Q9UBN7: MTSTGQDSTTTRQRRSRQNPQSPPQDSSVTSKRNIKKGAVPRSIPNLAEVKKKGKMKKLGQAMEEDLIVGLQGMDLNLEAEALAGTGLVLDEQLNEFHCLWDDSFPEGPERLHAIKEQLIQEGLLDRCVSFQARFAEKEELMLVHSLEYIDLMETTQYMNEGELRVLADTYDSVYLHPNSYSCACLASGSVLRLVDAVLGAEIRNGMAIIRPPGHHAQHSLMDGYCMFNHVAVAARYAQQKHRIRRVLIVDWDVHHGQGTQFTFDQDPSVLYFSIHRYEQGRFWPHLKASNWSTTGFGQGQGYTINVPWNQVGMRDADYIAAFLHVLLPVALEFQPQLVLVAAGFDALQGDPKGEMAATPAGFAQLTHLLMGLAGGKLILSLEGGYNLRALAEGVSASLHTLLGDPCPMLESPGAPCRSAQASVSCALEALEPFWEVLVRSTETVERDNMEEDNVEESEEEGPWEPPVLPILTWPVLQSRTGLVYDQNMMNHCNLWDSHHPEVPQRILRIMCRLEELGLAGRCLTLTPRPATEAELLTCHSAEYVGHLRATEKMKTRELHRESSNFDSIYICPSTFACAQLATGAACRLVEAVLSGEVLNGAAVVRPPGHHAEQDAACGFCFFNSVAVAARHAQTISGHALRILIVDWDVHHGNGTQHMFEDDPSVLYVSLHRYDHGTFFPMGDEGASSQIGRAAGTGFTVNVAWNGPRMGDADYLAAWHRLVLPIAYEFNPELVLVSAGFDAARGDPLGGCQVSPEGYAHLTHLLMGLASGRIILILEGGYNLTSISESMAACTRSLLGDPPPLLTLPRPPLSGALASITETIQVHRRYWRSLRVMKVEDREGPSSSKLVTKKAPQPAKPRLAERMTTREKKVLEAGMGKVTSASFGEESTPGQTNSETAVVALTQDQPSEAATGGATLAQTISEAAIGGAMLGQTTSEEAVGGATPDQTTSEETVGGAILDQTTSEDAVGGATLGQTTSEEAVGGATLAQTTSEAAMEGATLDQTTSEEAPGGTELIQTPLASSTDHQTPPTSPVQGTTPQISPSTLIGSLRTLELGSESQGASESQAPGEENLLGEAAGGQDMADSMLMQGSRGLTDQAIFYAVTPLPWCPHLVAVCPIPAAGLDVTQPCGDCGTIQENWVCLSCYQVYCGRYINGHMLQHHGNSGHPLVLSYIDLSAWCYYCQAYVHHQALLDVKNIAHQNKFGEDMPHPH
UniProt Q4KWH8: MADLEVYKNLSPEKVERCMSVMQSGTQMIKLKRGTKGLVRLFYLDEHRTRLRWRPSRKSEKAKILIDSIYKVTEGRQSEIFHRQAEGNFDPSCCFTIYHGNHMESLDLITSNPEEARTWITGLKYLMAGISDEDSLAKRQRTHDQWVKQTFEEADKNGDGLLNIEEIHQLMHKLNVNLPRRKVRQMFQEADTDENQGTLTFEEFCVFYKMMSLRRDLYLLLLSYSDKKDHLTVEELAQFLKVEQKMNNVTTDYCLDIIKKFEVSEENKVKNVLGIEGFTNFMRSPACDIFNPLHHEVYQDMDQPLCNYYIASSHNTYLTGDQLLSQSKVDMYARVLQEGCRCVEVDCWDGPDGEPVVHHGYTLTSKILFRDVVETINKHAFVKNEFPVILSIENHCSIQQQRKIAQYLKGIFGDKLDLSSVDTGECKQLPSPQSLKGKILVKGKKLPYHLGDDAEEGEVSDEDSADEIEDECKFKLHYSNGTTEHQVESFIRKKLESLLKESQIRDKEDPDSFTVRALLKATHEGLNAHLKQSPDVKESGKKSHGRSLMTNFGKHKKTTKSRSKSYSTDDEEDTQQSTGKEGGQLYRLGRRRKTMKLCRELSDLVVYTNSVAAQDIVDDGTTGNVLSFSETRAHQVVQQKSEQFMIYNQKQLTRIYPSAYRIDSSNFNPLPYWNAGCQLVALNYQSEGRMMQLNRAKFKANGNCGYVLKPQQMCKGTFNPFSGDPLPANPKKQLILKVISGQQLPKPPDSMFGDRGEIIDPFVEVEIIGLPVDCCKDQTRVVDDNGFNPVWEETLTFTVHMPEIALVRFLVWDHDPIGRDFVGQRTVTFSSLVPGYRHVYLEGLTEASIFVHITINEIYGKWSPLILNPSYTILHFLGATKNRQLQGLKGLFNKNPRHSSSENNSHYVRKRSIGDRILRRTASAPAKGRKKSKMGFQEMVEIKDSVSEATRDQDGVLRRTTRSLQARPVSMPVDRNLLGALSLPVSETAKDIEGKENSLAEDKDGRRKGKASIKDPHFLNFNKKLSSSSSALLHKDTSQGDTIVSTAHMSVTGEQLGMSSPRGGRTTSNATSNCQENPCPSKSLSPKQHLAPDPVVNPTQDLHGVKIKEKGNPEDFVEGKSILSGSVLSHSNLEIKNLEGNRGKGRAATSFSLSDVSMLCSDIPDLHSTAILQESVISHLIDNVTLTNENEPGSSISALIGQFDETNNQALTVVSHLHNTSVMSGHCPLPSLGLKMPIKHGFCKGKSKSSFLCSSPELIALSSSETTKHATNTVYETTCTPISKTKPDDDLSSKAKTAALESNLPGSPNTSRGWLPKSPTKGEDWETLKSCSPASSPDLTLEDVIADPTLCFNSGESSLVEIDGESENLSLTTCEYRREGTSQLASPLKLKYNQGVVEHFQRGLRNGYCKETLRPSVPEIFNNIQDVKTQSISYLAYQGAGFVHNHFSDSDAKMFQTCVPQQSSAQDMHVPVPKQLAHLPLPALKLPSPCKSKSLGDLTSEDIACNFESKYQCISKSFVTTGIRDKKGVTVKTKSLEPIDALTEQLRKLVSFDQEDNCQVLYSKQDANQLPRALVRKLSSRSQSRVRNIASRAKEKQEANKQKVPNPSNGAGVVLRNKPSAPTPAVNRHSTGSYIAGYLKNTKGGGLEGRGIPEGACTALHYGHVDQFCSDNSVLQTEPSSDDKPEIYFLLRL


Key:
[1] = molecular target: T1, FLCN-GFP fusion protein (Folliculin) (human); assay: affinity purification with mass spectrometry; FLCN-GFP precipitated on GFP-Trap-A beads from lysates of Elf1 FLCN KO + FLCN-GFP hESC, naive (2iL-I-F) and exiting the naive state (3D TeSR); plus against minus doxycycline; label free quantification, 5% FDR
[2] = molecular target: T1, FLCN-GFP fusion protein (Folliculin) (human); assay: affinity purification with mass spectrometry; as a1, the sample of naive hESC (2iL-I-F) alone
[3] = molecular target: T1, FLCN-GFP fusion protein (Folliculin) (human); assay: as above; remark: listed apart in the source

Row | binding [1] | binding [2] | binding [3] | Molecule
1 | binds |  |  | HDAC6 (from UniProt Q9UBN7 1-1215)
2 | binds |  |  | Caspase 14 (human (endogenous in Elf1 hESC))
3 | binds | no binding (only in naïve hESC) |  | PLCH1 (from UniProt Q4KWH8 1-1693)
4 | binds |  | no binding (only in naïve hESC) | RAP2B (protein, UniProt P61225 1-183) MREYKVVVLGSGGVGKSALTVQFVTGSFIEKYDPTIEDFYRKEIEVDSSPSVLEILDTAGTEQFASMRDLYIKNGQGFILVYSLVNQQSFQDIKPMRDQIIRVKRYERVPMILVGNKVDLEGEREVSYGEGKALAEEWSCPFMETSAKNKASVDELFAEIVRQMNYAAQPNGDEGCCSACVIL
5 | binds |  | no binding (only in naïve hESC) | TOR Signaling Pathway Regulator (TIPRL) (protein, UniProt O75663 1-272) MMIHGFQSSHRDFCFGPWKLTASKTHIMKSADVEKLADELHMPSLPEMMFGDNVLRIQHGSGFGIEFNATDALRCVNNYQGMLKVACAEEWQESRTEGEHSKEVIKPYDWTYTTDYKGTLLGESLKLKVVPTTDHIDTEKLKAREQIKFFEEVLLFEDELHDHGVSSLSVKIRVMPSSFFLLLRFFLRIDGVLIRMNDTRLYHEADKTYMLREYTSRESKISSLMHVPPSLFTEPNEISQYLPIKEAVCEKLIFPERIDPNPADSQKSTQVE
6 | binds |  | no binding (only in naïve hESC) | CD59 (protein, UniProt P13987 26-102) LQCYNCPNPTADCKTAVNCSSDFDACLITKAGLQVYNKCWKFEHCNFNDVTTRLRENELTYYCCKKDLCNFNEQLEN
7 | binds |  |  | FLCN Interacting Protein 1 (FNIP1) (protein, UniProt Q8TF40 1-1166) MAPTLFQKLFSKRTGLGAPGRDARDPDCGFSWPLPEFDPSQIRLIVYQDCERRGRNVLFDSSVKRRNEDISVSKLGSDAQVKVFGKCCQLKPGGDSSSSLDSSVTSSSDIKDQCLKYQGSRCSSDANMLGEMMFGSVAMSYKGSTLKIHQIRSPPQLMLSKVFTARTGSSICGSLNTLQDSLEFINQDNNTLKADNNTVINGLLGNIGLSQFCSPRRAFSEQGPLRLIRSASFFAVHSNPMDMPGRELNEDRDSGIARSASLSSLLITPFPSPNSSLTRSCASSYQRRWRRSQTTSLENGVFPRWSIEESFNLSDESCGPNPGIVRKKKIAIGVIFSLSKDEDENNKFNEFFFSHFPLFESHMNKLKSAIEQAMKMSRRSADASQRSLAYNRIVDALNEFRTTICNLYTMPRIGEPVWLTMMSGTPEKNHLCYRFMKEFTFLMENASKNQFLPALITAVLTNHLAWVPTVMPNGQPPIKIFLEKHSSQSVDMLAKTHPYNPLWAQLGDLYGAIGSPVRLARTVVVGKRQDMVQRLLYFLTYFIRCSELQETHLLENGEDEAIVMPGTVITTTLEKGEIEESEYVLVTMHRNKSSLLFKESEEIRTPNCNCKYCSHPLLGQNVENISQQEREDIQNSSKELLGISDECQMISPSDCQEENAVDVKQYRDKLRTCFDAKLETVVCTGSVPVDKCALSESGLESTEETWQSEKLLDSDSHTGKAMRSTGMVVEKKPPDKIVPASFSCEAAQTKVTFLIGDSMSPDSDTELRSQAVVDQITRHHTKPLKEERGAIDQHQETKQTTKDQSGESDTQNMVSEEPCELPCWNHSDPESMSLFDEYFNDDSIETRTIDDVPFKTSTDSKDHCCMLEFSKILCTKNNKQNNEFCKCIETVPQDSCKTCFPQQDQRDTLSILVPHGDKESSDKKIAVGTEWDIPRNESSDSALGDSESEDTGHDMTRQVSSYYGGEQEDWAEEDEIPFPGSKLIEVSAVQPNIANFGRSLLGGYCSSYVPDFVLQGIGSDERFRQCLMSDLSHAVQHPVLDEPIAEAVCIIADMDKWTVQVASSQRRVTDNKLGKEVLVSSLVSNLLHSTLQLYKHNLSPNFCVMHLEDRLQELYFKSKMLSEYLRGQMRVHVKELGVVLGIESSDLPLLAAVASTHSPYVAQILL
8 | binds |  | no binding (only in naïve hESC) | ARAP1 (protein, UniProt Q96P48 1-1450) MAEAGDAALSVAEWLRALHLEQYTGLFEQHGLVWATECQGLSDTRLMDMGMLLPGHRRRILAGLLRAHTSPAPAPRPTPRPVPMKRHIFRSPPVPATPPEPLPTTTEDEGLPAAPPIPPRRSCLPPTCFTTPSTAAPDPVLPPLPAKRHLAELSVPPVPPRTGPPRLLVSLPTKEEESLLPSLSSPPQPQSEEPLSTLPQGPPQPPSPPPCPPEIPPKPVRLFPEFDDSDYDEVPEEGPGAPARVMTKKEEPPPSRVPRAVRVASLLSEGEELSGDDQGDEEEDDHAYEGVPNGGWHTSSLSLSLPSTIAAPHPMDGPPGGSTPVTPVIKAGWLDKNPPQGSYIYQKRWVRLDTDHLRYFDSNKDAYSKRFISVACISHVAAIGDQKFEVITNNRTFAFRAESDVERKEWMQALQQAMAEQRARARLSSAYLLGVPGSEQPDRAGSLELRGFKNKLYVAVVGDKVQLYKNLEEYHLGIGITFIDMSVGNVKEVDRRSFDLTTPYRIFSFSADSELEKEQWLEAMQGAIAEALSTSEVAERIWAAAPNRFCADCGAPQPDWASINLCVVICKRCAGEHRGLGAGVSKVRSLKMDRKVWTETLIELFLQLGNGAGNRFWAANVPPSEALQPSSSPSTRRCHLEAKYREGKYRRYHPLFGNQEELDKALCAAVTTTDLAETQALLGCGAGINCFSGDPEAPTPLALAEQAGQTLQMEFLRNNRTTEVPRLDSMKPLEKHYSVVLPTVSHSGFLYKTASAGKLLQDRRAREEFSRRWCVLGDGVLSYFENERAVTPNGEIRASEIVCLAVPPPDTHGFEHTFEVYTEGERLYLFGLESAEQAHEWVKCIAKAFVPPLAEDLLARDFERLGRLPYKAGLSLQRAQEGWFSLSGSELRAVFPEGPCEEPLQLRKLQELSIQGDSENQVLVLVERRRTLYIQGERRLDFMGWLGAIQKAAASMGDTLSEQQLGDSDIPVIVYRCVDYITQCGLTSEGIYRKCGQTSKTQRLLESLRQDARSVHLKEGEQHVDDVSSALKRFLRDLPDGLFTRAQRLTWLEASEIEDEEEKVSRYRELLVRLPPVNRATVKALISHLYCVQCFSDTNQMNVHNLAIVFGPTLFQTDGQDYKAGRVVEDLINHYVVVFSVDEEELRKQREEITAIVKMRVAGTASGTQHAGDFICTVYLEEKKAETEQHIKVPASMTAEELTLEILDRRNVGIREKDYWTCFEVNEREEAERPLHFAEKVLPILHGLGTDSHLVVKKHQAMEAMLLYLASRVGDTKHGMMKFREDRSLLGLGLPSGGFHDRYFILNSSCLRLYKEVRSQRPWSGAPETSHRPEKEWPIKSLKVYLGVKKKLRPPTCWGFTVVHETEKHEKQQWYLCCDTQMELREWFATFLFVQHDGLVWPSEPSRVSRAVPEVRLGSVSLIPLRGSENEMRRSVAAFTADPLSLLRNV

Source: publication PMC6367455
